PubChem BioAssay AID720505 | Drosophila RNAi Screening Center | 2013
The deposit covers about 20,000 reagents; this is a random part of those with a known target gene and a result. Of all reagents, about 2,100 (10%) are marked active. 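Raw plate signals without normalisation; calls rest on control-based scores that were not deposited; replicate 2 separates called from uncalled poorly.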 A plus sign joins genes that one reagent is predicted to hit. The record does not give: the amount of reagent, the time to read-out.

Aim: 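Genes needed for store-operated calcium entry in fly cells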 (primary screen)
Cell system: Drosophila S2R+ cells
Reagents: long dsRNA against Drosophila genes
Treatment: thapsigargin (2 µM) in calcium-free buffer to empty internal stores, then 2 mM calcium added back
Measurement: 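Fluo-4 signal in 384-well plates read on a FLIPR after thapsigargin (2 µM, calcium-free) store depletion and 2 mM calcium add-back; unnormalised mean endpoint per well; screen run twice, selected wells retested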
Direction: calcium signal and retest calcium signal: higher = more calcium entry after store depletion
Active means: 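About 1500 genes called as lowering calcium entry, by varying amounts, judged against per-plate control wells with STIM1 as positive and Rho1 as negative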
Calls: active = called as lowering calcium entry; inactive = not called

The opening 2 entries, to show the layout:
Gene,DRSC id,"calcium signal, replicate 1","calcium signal, replicate 2","retest calcium signal, replicate 1","retest calcium signal, replicate 2",Outcome
CG3081,DRSC18571,200,97.2,,,inactive
CG13738,DRSC10065,113,110,,,inactive

The list itself, repeating the preview:
Gene,DRSC id,"calcium signal, replicate 1","calcium signal, replicate 2","retest calcium signal, replicate 1","retest calcium signal, replicate 2",Outcome
CG3081,DRSC18571,200,97.2,,,inactive
CG13738,DRSC10065,113,110,,,inactive
CG34404,DRSC15335,124,78.8,,,active
CG34404,DRSC15978,90.1,105,,,inactive
RhoGAP15B,DRSC19924,109,155,,,inactive
RhoGAP15B,DRSC19925,106,137,,,inactive
Archease,DRSC16025,218,199,,,inactive
Trf4,DRSC00729,191,146,,,inactive
ebo,DRSC18787,126,159,,,inactive
CG6983,DRSC10757,74.1,82.8,,,active
CG33919,DRSC04940,124,126,,,inactive
CG14644,DRSC12230,102,147,,,inactive
Taf8,DRSC20363,96.6,123,,,inactive
alphaTub85E,DRSC16899,68.3,98.8,,,active
CR40441,DRSC22916,97.8,193,,,inactive
OtopLb,DRSC00594,143,199,,,inactive
Prim1,DRSC11137,82.7,45.9,,,inactive
CG4854,DRSC15663,100,91.9,,,inactive
Sr-CIV,DRSC00575,70.7,198,,,active
Ssadh,DRSC15621,97.2,93.9,,,inactive
Polr3G,DRSC21511,203,139,,,inactive
CheB53b,DRSC05613,54.4,106,,,active
Mys45A,DRSC07067,160,117,,,inactive
Adgf-B,DRSC10568,126,150,,,inactive
Grp170,DRSC18524,122,163,,,inactive
Iml1,DRSC08249,186,173,,,inactive
CG8708,DRSC07240,202,211,,,inactive
Rcd2,DRSC11756,85.6,142,,,inactive
acj6,DRSC20304,122,117,,,inactive
Hrs,DRSC00549,96.1,163,,,inactive
Npc2c,DRSC15523,125,85.7,,,inactive
spg,DRSC14373,149,116,,,inactive
spg,DRSC14881,150,155,,,inactive
Pef,DRSC06695,168,126,,,inactive
CG8607,DRSC11012,89.7,68.6,,,inactive
MtnC,DRSC22879,94.1,113,,,inactive
CG6294 + CG6299 + CG15642,DRSC19981,72.5,121,,,active
Eip93F,DRSC13527,,,,,active
Eip93F,DRSC16661,198,143,,,inactive
Eip93F,DRSC21754,173,92.6,,,inactive
Eip93F,DRSC23072,113,82.8,,,inactive
CG6195,DRSC15989,245,201,,,inactive
CG8475,DRSC03091,129,215,,,inactive
Nepl7,DRSC02495,60.9,117,96.7,115,active
jvl,DRSC15495,100,140,,,inactive
CR42546,DRSC03711,100,120,,,inactive
CG30103,DRSC06894,164,141,,,inactive
Nup62,DRSC06970,132,95.4,,,inactive
CG34167,DRSC01525,114,90.8,,,active
CG31223,DRSC15115,170,438,,,inactive
sn,DRSC18834,154,151,,,inactive
Atac2,DRSC02053,104,87.9,,,inactive
ArfGAP3,DRSC11794,147,146,,,inactive
CG12857,DRSC06197,109,153,,,inactive
CG11131,DRSC11636,75.5,118,,,inactive
CG11131,DRSC21736,94.8,122,,,inactive
